Reference: PubChem BioAssay AID493246 (Drosophila RNAi Screening Center, 2011)
Screen: 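Identify essential fly genes by loss of cell viability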 (primary screen). Cells: Drosophila Kc and S2R+ cells. Knock-down reagent: long dsRNA against Drosophila genes. Read-out: 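Raw, unnormalised count of remaining cells in each well; per-plate z-scores of cell number underlie the calls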. Scale: Kc cell number and S2R+ cell number: higher = more cells remaining. Hit rule: 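Counted as a hit if cell number falls by a z-score of at least 3 within its plate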.
The screen tested about 21,000 reagents; this is an unselected part of those that have a named target and a result. In the full data, 429 (2%) are marked active. 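Values are raw and not normalised between plates; calls rest on per-plate z-scores that were not deposited.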 A plus sign joins genes that one reagent is predicted to hit. Not given: the amount of reagent, the time to read-out.

target | amplicon | Kc cell number, rep 1 | Kc cell number, rep 2 | S2R+ cell number, rep 1 | S2R+ cell number, rep 2 | call
mthl9 | DRSC08506 | 1.48e6 | 1.24e6 | 1.07e6 | 1.32e6 | inactive
CG7166 | DRSC11809 | 1.34e6 | 1.44e6 | 1.19e6 | 1.30e6 | inactive
Samuel | DRSC02156 | 1.42e6 | 1.62e6 | 1.07e6 | 1.17e6 | inactive
Samuel | DRSC02401 | 1.34e6 | 1.59e6 | 7.40e5 | 8.41e5 | active
Samuel | DRSC02402 | 1.73e6 | 1.74e6 | 1.20e6 | 1.31e6 | inactive
CG13516 | DRSC04159 | 1.70e6 | 1.79e6 | 1.19e6 | 1.31e6 | inactive
Vha68-3 | DRSC02809 | 1.61e6 | 1.63e6 | 1.30e6 | 1.39e6 | inactive
CG1907 | DRSC15399 | 5.38e5 | – | 7.94e5 | – | inactive
CG6845 | DRSC08576 | 1.61e6 | 1.50e6 | 1.14e6 | 1.17e6 | inactive
Nf-YA | DRSC10385 | 1.51e6 | 1.45e6 | 8.74e5 | 1.03e6 | inactive
CG5131 | DRSC02817 | 1.61e6 | 1.73e6 | 1.19e6 | 1.35e6 | inactive
Obp83ef | DRSC12268 | 1.48e6 | 1.61e6 | 1.29e6 | 1.36e6 | inactive
CG13721 | DRSC08330 | 1.35e6 | 1.41e6 | 1.14e6 | 1.21e6 | inactive
CG15120 | DRSC06542 | 1.50e6 | 1.56e6 | 1.07e6 | 1.21e6 | inactive
Kr-h2 | DRSC03356 | 1.53e6 | 1.49e6 | 1.20e6 | 1.37e6 | inactive
CG13239 | DRSC11694 | 1.48e6 | 1.47e6 | 1.28e6 | 1.38e6 | inactive
Rpt6R | DRSC15431 | 1.48e6 | 1.46e6 | 9.72e5 | 1.13e6 | inactive
CG8219 | DRSC10971 | 1.39e6 | 1.39e6 | 1.13e6 | 1.16e6 | inactive
Atg4a | DRSC00656 | 1.34e6 | 1.43e6 | 1.07e6 | 1.14e6 | inactive
s-cup | DRSC06277 | 1.48e6 | 1.52e6 | 1.19e6 | 1.39e6 | inactive
s-cup | DRSC06278 | 1.56e6 | 1.57e6 | 1.24e6 | 1.40e6 | inactive
trh | DRSC08355 | 1.20e6 | 1.15e6 | 1.08e6 | 1.25e6 | inactive
trh | DRSC08739 | 1.19e6 | 1.23e6 | 1.10e6 | 1.26e6 | inactive
CG7407 | DRSC11824 | 1.46e6 | 1.50e6 | 1.32e6 | 1.31e6 | inactive
CG10516 | DRSC09738 | 1.33e6 | 1.49e6 | 1.27e6 | 1.32e6 | inactive
Aldh | DRSC02717 | 1.54e6 | 1.60e6 | 1.19e6 | 1.32e6 | inactive
ATPsynbeta | DRSC17194 | 7.62e5 | 8.29e5 | 7.90e5 | 8.97e5 | active
Nurf-38 | DRSC04629 | 1.59e6 | 1.57e6 | 1.19e6 | 1.37e6 | inactive
CycT | DRSC11124 | 6.99e5 | 9.86e5 | 6.66e5 | 7.98e5 | active
Agpat3 | DRSC10445 | 1.60e6 | 1.56e6 | 1.34e6 | 1.42e6 | inactive
comt | DRSC20319 | 1.59e6 | 1.59e6 | 8.37e5 | 9.71e5 | inactive

8 successive entries already listed, quoted:
target | amplicon | Kc cell number, rep 1 | Kc cell number, rep 2 | S2R+ cell number, rep 1 | S2R+ cell number, rep 2 | call
CG7407 | DRSC11824 | 1.46e6 | 1.50e6 | 1.32e6 | 1.31e6 | inactive
CG10516 | DRSC09738 | 1.33e6 | 1.49e6 | 1.27e6 | 1.32e6 | inactive
Aldh | DRSC02717 | 1.54e6 | 1.60e6 | 1.19e6 | 1.32e6 | inactive
ATPsynbeta | DRSC17194 | 7.62e5 | 8.29e5 | 7.90e5 | 8.97e5 | active
Nurf-38 | DRSC04629 | 1.59e6 | 1.57e6 | 1.19e6 | 1.37e6 | inactive
CycT | DRSC11124 | 6.99e5 | 9.86e5 | 6.66e5 | 7.98e5 | active
Agpat3 | DRSC10445 | 1.60e6 | 1.56e6 | 1.34e6 | 1.42e6 | inactive
comt | DRSC20319 | 1.59e6 | 1.59e6 | 8.37e5 | 9.71e5 | inactive

The results go on:
target | amplicon | Kc cell number, rep 1 | Kc cell number, rep 2 | S2R+ cell number, rep 1 | S2R+ cell number, rep 2 | call
CG7255 | DRSC10790 | 1.62e6 | 1.59e6 | 1.22e6 | 1.32e6 | inactive
spab | DRSC07112 | 1.52e6 | 1.62e6 | 1.33e6 | 1.41e6 | inactive
f | DRSC19516 | 1.44e6 | 1.41e6 | 1.15e6 | 1.31e6 | inactive
f | DRSC20331 | 1.59e6 | 1.62e6 | 1.18e6 | 1.26e6 | inactive
Yp2 | DRSC18732 | 5.56e5 | – | 8.34e5 | – | inactive
CG15199 | DRSC19646 | 1.51e6 | 1.56e6 | 1.10e6 | 1.30e6 | inactive
Scr | DRSC12604 | 8.88e5 | 8.62e5 | 6.43e5 | 8.23e5 | active
CG14253 | DRSC14748 | 1.45e6 | 1.50e6 | 9.77e5 | 1.10e6 | inactive
CG7252 | DRSC10789 | 1.50e6 | 1.52e6 | 1.28e6 | 1.21e6 | inactive
CG34434 | DRSC18134 | 1.52e6 | 1.52e6 | 1.06e6 | 1.23e6 | inactive
Jheh2 | DRSC06530 | 1.75e6 | 1.69e6 | 1.23e6 | 1.38e6 | inactive
Sytbeta | DRSC10009 | 1.32e6 | 1.44e6 | 1.25e6 | 1.39e6 | inactive
Sytbeta | DRSC10351 | 1.39e6 | 1.64e6 | 1.40e6 | 1.50e6 | inactive
sano | DRSC06165 | 1.33e6 | 1.29e6 | 1.14e6 | 1.20e6 | inactive
CG17564 | DRSC02626 | 1.67e6 | 1.80e6 | 1.40e6 | 4.15e5 | inactive
CG42712 (retired record) | DRSC01038 | 1.47e6 | 1.58e6 | 1.07e6 | 1.18e6 | inactive
Dpck | DRSC12575 | 1.42e6 | 1.57e6 | 1.15e6 | 1.25e6 | inactive
CG32299 + CG32298 | DRSC07980 | 1.44e6 | 1.41e6 | 9.66e5 | 1.12e6 | inactive
CG9962 | DRSC00739 | 1.51e6 | 1.50e6 | 1.09e6 | 1.24e6 | inactive
Alg13 | DRSC14864 | 1.73e6 | 1.71e6 | 1.09e6 | 1.24e6 | inactive
CG5746 | DRSC15868 | 1.44e6 | 1.54e6 | 1.14e6 | 1.20e6 | inactive
zen | DRSC12632 | 1.32e6 | 1.36e6 | 1.26e6 | 1.35e6 | inactive
rod | DRSC17047 | 1.49e6 | 1.67e6 | 1.02e6 | 1.12e6 | inactive
CG44433 | DRSC06517 | 1.78e6 | 1.79e6 | 1.28e6 | 1.53e6 | inactive
CG44433 | DRSC06518 | 1.82e6 | 1.91e6 | 1.27e6 | 1.38e6 | inactive
E(spl)mdelta-HLH | DRSC16698 | 1.56e6 | 1.71e6 | 1.02e6 | 1.10e6 | inactive
CG8677 | DRSC03107 | 1.36e6 | 1.45e6 | 1.06e6 | 1.18e6 | inactive
Sdc | DRSC04654 | 1.48e6 | 1.53e6 | 1.14e6 | 3.13e5 | inactive
